Assay: Baseline fluorescence ratio Ro of probe in absence of analyte
Conditions: baseline fluorescence ratio of probe

Molecule | Ro | Ro (no fatty acid)
14L 18I 31L 73F 117A 72A (protein, listed as Rattus norvegicus, PEPTIDE (1)...(131) wild-type rat intestinal fatty acid binding protein) AFDGTWKVDRNENLEKFIEKMGINVVKRKLLAHDNLKLTITQEGNKFTVKESSNFRNIDVVFELGVDFAYSAFDGTELTGTWTMEGNKLVGKFKRVDNGKELIAVREISGNELIQTATYEGVEAKRIFKKE | 0.255 | 0.255
72H 73Y 74G (protein, listed as Rattus norvegicus, PEPTIDE (1)...(131) wild-type rat intestinal fatty acid binding protein) AFDGTWKVDRNENYEKFMEKMGINVVKRKLGAHDNLKLTITQEGNKFTVKESSNFRNIDVVFELGVDFAYSHYGGTELTGTWTMEGNKLVGKFKRVDNGKELIAVREISGNELIQTYTYEGVEAKRIFKKE | – | 0.205
11I, 72A (protein, listed as Rattus norvegicus, PEPTIDE (1)...(131) wild-type rat intestinal fatty acid binding protein) AFDGTWKVDRIENYEKFMEKMGINVVKRKLGAHDNLKLTITQEGNKFTVKESSNFRNIDVVFELGVDFAYSAADGTELTGTWTMEGNKLVGKFKRVDNGKELIAVREISGNELIQTYTYEGVEAKRIFKKE | – | 0.382
49N, 72A (protein, listed as Rattus norvegicus, PEPTIDE (1)...(131) wild-type rat intestinal fatty acid binding protein) AFDGTWKVDRNENYEKFMEKMGINVVKRKLGAHDNLKLTITQEGNKFTNKESSNFRNIDVVFELGVDFAYSAADGTELTGTWTMEGNKLVGKFKRVDNGKELIAVREISGNELIQTYTYEGVEAKRIFKKE | 0.345 | –
106I, 72A (protein, listed as Rattus norvegicus, PEPTIDE (1)...(131) wild-type rat intestinal fatty acid binding protein) AFDGTWKVDRNENYEKFMEKMGINVVKRKLGAHDNLKLTITQEGNKFTVKESSNFRNIDVVFELGVDFAYSAADGTELTGTWTMEGNKLVGKFKRVDNGKELIAVIEISGNELIQTYTYEGVEAKRIFKKE | – | 0.291
106H, 72A (protein, listed as Rattus norvegicus, PEPTIDE (1)...(131) wild-type rat intestinal fatty acid binding protein) AFDGTWKVDRNENYEKFMEKMGINVVKRKLGAHDNLKLTITQEGNKFTVKESSNFRNIDVVFELGVDFAYSAADGTELTGTWTMEGNKLVGKFKRVDNGKELIAVHEISGNELIQTYTYEGVEAKRIFKKE | – | 0.279
14I 72A (protein, listed as Rattus norvegicus, PEPTIDE (1)...(131) wild-type rat intestinal fatty acid binding protein) AFDGTWKVDRNENIEKFMEKMGINVVKRKLGAHDNLKLTITQEGNKFTVKESSNFRNIDVVFELGVDFAYSAADGTELTGTWTMEGNKLVGKFKRVDNGKELIAVREISGNELIQTYTYEGVEAKRIFKKE | – | 0.345
106S, 72A (protein, listed as Rattus norvegicus, PEPTIDE (1)...(131) wild-type rat intestinal fatty acid binding protein) AFDGTWKVDRNENYEKFMEKMGINVVKRKLGAHDNLKLTITQEGNKFTVKESSNFRNIDVVFELGVDFAYSAADGTELTGTWTMEGNKLVGKFKRVDNGKELIAVSEISGNELIQTYTYEGVEAKRIFKKE | – | 0.258
38M 72G 117F (protein, listed as Rattus norvegicus, PEPTIDE (1)...(131) wild-type rat intestinal fatty acid binding protein) AFDGTWKVDRNENYEKFMEKMGINVVKRKLGAHDNLKMTITQEGNKFTVKESSNFRNIDVVFELGVDFAYSGADGTELTGTWTMEGNKLVGKFKRVDNGKELIAVREISGNELIQTFTYEGVEAKRIFKKE | 0.241 | –
106A, 72A (protein, listed as Rattus norvegicus, PEPTIDE (1)...(131) wild-type rat intestinal fatty acid binding protein) AFDGTWKVDRNENYEKFMEKMGINVVKRKLGAHDNLKLTITQEGNKFTVKESSNFRNIDVVFELGVDFAYSAADGTELTGTWTMEGNKLVGKFKRVDNGKELIAVAEISGNELIQTYTYEGVEAKRIFKKE | – | 0.249
106L, 72A (protein, listed as Rattus norvegicus, PEPTIDE (1)...(131) wild-type rat intestinal fatty acid binding protein) AFDGTWKVDRNENYEKFMEKMGINVVKRKLGAHDNLKLTITQEGNKFTVKESSNFRNIDVVFELGVDFAYSAADGTELTGTWTMEGNKLVGKFKRVDNGKELIAVLEISGNELIQTYTYEGVEAKRIFKKE | – | 0.299
14I 38I 72V (protein, listed as Rattus norvegicus, PEPTIDE (1)...(131) wild-type rat intestinal fatty acid binding protein) AFDGTWKVDRNENIEKFMEKMGINVVKRKLGAHDNLKITITQEGNKFTVKESSNFRNIDVVFELGVDFAYSVADGTELTGTWTMEGNKLVGKFKRVDNGKELIAVREISGNELIQTYTYEGVEAKRIFKKE | – | 0.205
14L 72A (protein, listed as Rattus norvegicus, PEPTIDE (1)...(131) wild-type rat intestinal fatty acid binding protein) AFDGTWKVDRNENLEKFMEKMGINVVKRKLGAHDNLKLTITQEGNKFTVKESSNFRNIDVVFELGVDFAYSAADGTELTGTWTMEGNKLVGKFKRVDNGKELIAVREISGNELIQTYTYEGVEAKRIFKKE | 0.241 | 0.241
72G 74F (protein, listed as Rattus norvegicus, PEPTIDE (1)...(131) wild-type rat intestinal fatty acid binding protein) AFDGTWKVDRNENYEKFMEKMGINVVKRKLGAHDNLKLTITQEGNKFTVKESSNFRNIDVVFELGVDFAYSGAFGTELTGTWTMEGNKLVGKFKRVDNGKELIAVREISGNELIQTYTYEGVEAKRIFKKE | – | 0.467
11Y, 72A (protein, listed as Rattus norvegicus, PEPTIDE (1)...(131) wild-type rat intestinal fatty acid binding protein) AFDGTWKVDRYENYEKFMEKMGINVVKRKLGAHDNLKLTITQEGNKFTVKESSNFRNIDVVFELGVDFAYSAADGTELTGTWTMEGNKLVGKFKRVDNGKELIAVREISGNELIQTYTYEGVEAKRIFKKE | 0.309 | 0.309
14L 38M 72A 117F (protein, listed as Rattus norvegicus, PEPTIDE (1)...(131) wild-type rat intestinal fatty acid binding protein) AFDGTWKVDRNENLEKFMEKMGINVVKRKLGAHDNLKMTITQEGNKFTVKESSNFRNIDVVFELGVDFAYSAADGTELTGTWTMEGNKLVGKFKRVDNGKELIAVREISGNELIQTFTYEGVEAKRIFKKE | – | 0.213
14L 18L 73L 117A 72A (protein, listed as Rattus norvegicus, PEPTIDE (1)...(131) wild-type rat intestinal fatty acid binding protein) AFDGTWKVDRNENLEKFLEKMGINVVKRKLGAHDNLKLTITQEGNKFTVKESSNFRNIDVVFELGVDFAYSALDGTELTGTWTMEGNKLVGKFKRVDNGKELIAVREISGNELIQTATYEGVEAKRIFKKE | 0.372 | 0.372
106T, 72A (protein, listed as Rattus norvegicus, PEPTIDE (1)...(131) wild-type rat intestinal fatty acid binding protein) AFDGTWKVDRNENYEKFMEKMGINVVKRKLGAHDNLKLTITQEGNKFTVKESSNFRNIDVVFELGVDFAYSAADGTELTGTWTMEGNKLVGKFKRVDNGKELIAVTEISGNELIQTYTYEGVEAKRIFKKE | – | 0.228
14L 18T 31E 73G 117G 72A (protein, listed as Rattus norvegicus, PEPTIDE (1)...(131) wild-type rat intestinal fatty acid binding protein) AFDGTWKVDRNENLEKFTEKMGINVVKRKLEAHDNLKLTITQEGNKFTVKESSNFRNIDVVFELGVDFAYSAGDGTELTGTWTMEGNKLVGKFKRVDNGKELIAVREISGNELIQTGTYEGVEAKRIFKKE | 0.395 | –
62N 106F 117A 72A (protein, listed as Rattus norvegicus, PEPTIDE (1)...(131) wild-type rat intestinal fatty acid binding protein) AFDGTWKVDRNENYEKFMEKMGINVVKRKLGAHDNLKLTITQEGNKFTVKESSNFRNIDVVNELGVDFAYSAADGTELTGTWTMEGNKLVGKFKRVDNGKELIAVFEISGNELIQTATYEGVEAKRIFKKE | 0.224 | 0.224
106N, 72A (protein, listed as Rattus norvegicus, PEPTIDE (1)...(131) wild-type rat intestinal fatty acid binding protein) AFDGTWKVDRNENYEKFMEKMGINVVKRKLGAHDNLKLTITQEGNKFTVKESSNFRNIDVVFELGVDFAYSAADGTELTGTWTMEGNKLVGKFKRVDNGKELIAVNEISGNELIQTYTYEGVEAKRIFKKE | – | 0.238
106V, 72A (protein, listed as Rattus norvegicus, PEPTIDE (1)...(131) wild-type rat intestinal fatty acid binding protein) AFDGTWKVDRNENYEKFMEKMGINVVKRKLGAHDNLKLTITQEGNKFTVKESSNFRNIDVVFELGVDFAYSAADGTELTGTWTMEGNKLVGKFKRVDNGKELIAVVEISGNELIQTYTYEGVEAKRIFKKE | – | 0.261
72T 73Q 74S (protein, listed as Rattus norvegicus, PEPTIDE (1)...(131) wild-type rat intestinal fatty acid binding protein) AFDGTWKVDRNENYEKFMEKMGINVVKRKLGAHDNLKLTITQEGNKFTVKESSNFRNIDVVFELGVDFAYSTQSGTELTGTWTMEGNKLVGKFKRVDNGKELIAVREISGNELIQTYTYEGVEAKRIFKKE | – | 0.283
